Experimental data as given in PMC3169550.
Where two headings read alike, the source gives them in different places. Results are given in words; binding and its absence hold for the method and conditions named. In cells and extracts the contact can be indirect. These calls come from enrichment with a bait or labelling near it, and not all partners need be listed. For part of these data: A no says only that the protein was not detected with the bait. Values belong to the molecule of their own block, whether it stands above or below them.

Chains of the proteins cited; added tags and fusions are not shown.
UniProt Q9WUN2: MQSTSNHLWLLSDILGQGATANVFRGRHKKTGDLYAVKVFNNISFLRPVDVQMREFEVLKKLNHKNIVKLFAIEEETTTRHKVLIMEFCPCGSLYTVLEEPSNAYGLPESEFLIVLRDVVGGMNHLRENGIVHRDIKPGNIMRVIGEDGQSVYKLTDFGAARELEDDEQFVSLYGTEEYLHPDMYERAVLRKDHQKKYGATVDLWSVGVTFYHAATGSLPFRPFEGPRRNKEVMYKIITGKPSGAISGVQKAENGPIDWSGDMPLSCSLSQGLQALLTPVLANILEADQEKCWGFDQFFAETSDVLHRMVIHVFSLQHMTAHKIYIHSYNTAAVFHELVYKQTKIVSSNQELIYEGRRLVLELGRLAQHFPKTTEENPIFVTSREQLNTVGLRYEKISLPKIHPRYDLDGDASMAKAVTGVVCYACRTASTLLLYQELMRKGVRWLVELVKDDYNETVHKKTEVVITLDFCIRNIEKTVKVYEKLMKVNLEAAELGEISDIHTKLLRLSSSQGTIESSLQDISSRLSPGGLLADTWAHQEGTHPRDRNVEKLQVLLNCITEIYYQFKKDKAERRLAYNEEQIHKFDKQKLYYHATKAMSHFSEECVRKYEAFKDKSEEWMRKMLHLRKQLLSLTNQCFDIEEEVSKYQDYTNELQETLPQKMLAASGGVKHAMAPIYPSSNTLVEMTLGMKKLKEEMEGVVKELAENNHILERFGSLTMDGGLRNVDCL
UniProt A2A9T0: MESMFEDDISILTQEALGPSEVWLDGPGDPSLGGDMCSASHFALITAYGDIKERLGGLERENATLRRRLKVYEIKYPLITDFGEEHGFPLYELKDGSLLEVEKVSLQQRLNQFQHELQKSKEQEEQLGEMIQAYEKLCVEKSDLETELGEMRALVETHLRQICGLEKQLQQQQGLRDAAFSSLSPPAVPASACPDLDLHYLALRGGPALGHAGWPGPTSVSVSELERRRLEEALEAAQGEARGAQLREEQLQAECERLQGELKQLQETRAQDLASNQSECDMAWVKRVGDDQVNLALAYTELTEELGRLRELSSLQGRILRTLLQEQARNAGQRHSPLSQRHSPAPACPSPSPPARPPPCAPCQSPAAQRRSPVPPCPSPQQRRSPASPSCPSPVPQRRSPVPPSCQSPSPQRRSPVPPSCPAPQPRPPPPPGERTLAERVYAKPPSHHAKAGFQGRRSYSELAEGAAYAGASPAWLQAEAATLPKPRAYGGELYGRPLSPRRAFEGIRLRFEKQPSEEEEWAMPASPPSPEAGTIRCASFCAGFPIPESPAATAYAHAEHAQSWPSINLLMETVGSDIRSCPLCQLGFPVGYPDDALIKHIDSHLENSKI
UniProt O88522: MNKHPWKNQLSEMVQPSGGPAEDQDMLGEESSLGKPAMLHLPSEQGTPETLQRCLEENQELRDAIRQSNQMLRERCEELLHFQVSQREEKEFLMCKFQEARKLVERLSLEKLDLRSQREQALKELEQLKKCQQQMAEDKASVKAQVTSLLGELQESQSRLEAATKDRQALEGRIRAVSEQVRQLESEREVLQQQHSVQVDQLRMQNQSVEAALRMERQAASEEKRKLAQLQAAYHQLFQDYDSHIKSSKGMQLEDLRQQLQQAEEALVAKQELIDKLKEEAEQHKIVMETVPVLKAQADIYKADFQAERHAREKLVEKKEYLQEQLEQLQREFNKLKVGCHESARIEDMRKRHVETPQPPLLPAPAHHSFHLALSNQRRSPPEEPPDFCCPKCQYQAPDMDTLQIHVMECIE
UniProt O88351: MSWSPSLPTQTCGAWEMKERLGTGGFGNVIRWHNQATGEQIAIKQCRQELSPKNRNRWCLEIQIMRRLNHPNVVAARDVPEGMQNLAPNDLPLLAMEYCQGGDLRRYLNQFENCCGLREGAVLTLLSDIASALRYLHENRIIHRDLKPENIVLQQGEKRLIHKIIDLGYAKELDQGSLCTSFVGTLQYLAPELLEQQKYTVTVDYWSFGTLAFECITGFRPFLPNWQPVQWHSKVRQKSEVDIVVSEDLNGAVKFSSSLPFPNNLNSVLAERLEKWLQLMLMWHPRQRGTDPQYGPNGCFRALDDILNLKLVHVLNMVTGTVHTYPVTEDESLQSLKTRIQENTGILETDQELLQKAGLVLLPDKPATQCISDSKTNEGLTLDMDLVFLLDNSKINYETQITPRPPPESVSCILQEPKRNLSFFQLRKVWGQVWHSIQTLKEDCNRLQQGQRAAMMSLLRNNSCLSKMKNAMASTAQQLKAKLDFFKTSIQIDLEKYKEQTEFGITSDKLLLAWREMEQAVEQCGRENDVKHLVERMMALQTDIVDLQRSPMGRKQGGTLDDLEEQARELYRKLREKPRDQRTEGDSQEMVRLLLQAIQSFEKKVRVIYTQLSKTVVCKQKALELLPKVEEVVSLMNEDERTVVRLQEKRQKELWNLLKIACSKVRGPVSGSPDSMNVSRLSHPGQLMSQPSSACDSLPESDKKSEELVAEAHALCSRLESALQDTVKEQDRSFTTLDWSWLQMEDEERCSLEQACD
UniProt Q60803: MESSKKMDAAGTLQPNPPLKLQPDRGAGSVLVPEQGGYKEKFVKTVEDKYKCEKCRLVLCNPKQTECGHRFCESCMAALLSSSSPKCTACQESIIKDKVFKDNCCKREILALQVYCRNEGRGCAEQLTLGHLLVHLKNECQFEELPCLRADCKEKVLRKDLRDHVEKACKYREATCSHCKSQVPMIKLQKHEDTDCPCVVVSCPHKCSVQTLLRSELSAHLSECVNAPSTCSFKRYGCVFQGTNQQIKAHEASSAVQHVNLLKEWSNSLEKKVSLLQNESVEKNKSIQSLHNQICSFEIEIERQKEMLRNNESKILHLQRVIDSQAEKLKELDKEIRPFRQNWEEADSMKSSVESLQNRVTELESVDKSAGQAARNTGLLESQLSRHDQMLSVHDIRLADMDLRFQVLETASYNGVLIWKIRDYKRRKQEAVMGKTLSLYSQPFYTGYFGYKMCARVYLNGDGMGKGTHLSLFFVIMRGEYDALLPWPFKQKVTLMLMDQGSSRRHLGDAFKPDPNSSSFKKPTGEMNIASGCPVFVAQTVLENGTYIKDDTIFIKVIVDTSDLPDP
UniProt O08863: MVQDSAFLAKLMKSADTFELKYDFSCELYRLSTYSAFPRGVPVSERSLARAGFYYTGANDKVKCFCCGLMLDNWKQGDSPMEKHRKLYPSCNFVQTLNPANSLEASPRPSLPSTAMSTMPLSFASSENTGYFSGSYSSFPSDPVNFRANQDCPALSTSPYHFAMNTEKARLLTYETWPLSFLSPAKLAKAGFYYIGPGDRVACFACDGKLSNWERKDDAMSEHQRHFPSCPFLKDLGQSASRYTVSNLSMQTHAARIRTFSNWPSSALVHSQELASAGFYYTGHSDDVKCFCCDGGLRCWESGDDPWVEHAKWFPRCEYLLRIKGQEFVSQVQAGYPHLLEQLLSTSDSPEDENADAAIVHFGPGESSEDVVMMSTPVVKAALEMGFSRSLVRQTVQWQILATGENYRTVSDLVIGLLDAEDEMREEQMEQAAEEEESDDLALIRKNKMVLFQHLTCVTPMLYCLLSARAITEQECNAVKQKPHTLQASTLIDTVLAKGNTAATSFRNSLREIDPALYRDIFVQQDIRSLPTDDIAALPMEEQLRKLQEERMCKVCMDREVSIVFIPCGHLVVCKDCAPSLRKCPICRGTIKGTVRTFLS
UniProt Q62210: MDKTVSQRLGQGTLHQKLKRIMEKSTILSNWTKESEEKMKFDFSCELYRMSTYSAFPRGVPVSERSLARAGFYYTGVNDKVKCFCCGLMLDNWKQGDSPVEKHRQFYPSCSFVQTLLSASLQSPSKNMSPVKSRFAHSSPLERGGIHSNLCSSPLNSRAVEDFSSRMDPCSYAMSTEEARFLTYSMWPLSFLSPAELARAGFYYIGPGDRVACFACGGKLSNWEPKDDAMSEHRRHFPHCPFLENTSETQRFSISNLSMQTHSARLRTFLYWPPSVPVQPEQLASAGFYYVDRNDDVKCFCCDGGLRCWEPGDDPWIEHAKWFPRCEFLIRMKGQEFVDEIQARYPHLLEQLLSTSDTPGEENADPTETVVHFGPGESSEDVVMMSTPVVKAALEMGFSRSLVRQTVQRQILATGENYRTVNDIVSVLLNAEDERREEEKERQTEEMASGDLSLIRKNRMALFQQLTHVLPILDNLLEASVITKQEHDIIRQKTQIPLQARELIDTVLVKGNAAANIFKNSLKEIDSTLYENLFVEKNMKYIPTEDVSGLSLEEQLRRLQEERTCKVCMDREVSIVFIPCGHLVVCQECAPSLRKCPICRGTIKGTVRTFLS

Columns and labels:
Experiment in all cases: affinity purification with mass spectrometry; tandem affinity purification of GS-TAP-tagged baits stably expressed in RAW264.7 cells (about 2x10^9 cells); eluates analysed by LC-MS on an LTQ Orbitrap XL; specificity filtered against 150 purifications of unrelated baits
[1] = target: TANK-binding kinase 1 (TBK1) (murine) (UniProt Q9WUN2)
[2] = target: T1, TANK (mouse (endogenous in RAW264.7)) (UniProt P70347)
T1 sequence: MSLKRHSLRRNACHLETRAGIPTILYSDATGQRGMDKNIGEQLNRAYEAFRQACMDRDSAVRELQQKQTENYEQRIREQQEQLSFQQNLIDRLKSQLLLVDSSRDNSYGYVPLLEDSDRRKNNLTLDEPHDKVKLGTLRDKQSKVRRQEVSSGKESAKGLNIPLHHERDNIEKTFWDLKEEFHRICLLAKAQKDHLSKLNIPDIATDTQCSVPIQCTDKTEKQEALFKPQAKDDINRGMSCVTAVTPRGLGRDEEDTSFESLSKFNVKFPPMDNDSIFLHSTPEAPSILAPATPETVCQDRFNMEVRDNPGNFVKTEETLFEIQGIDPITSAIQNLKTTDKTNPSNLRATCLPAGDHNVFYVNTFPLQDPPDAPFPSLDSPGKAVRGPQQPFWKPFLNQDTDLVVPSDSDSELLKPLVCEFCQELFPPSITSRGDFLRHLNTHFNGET

[3] = target: T2, inducible IκB-kinase (IKK-i) (mouse (endogenous in RAW264.7)) (UniProt Q9R0T8)
T2 sequence: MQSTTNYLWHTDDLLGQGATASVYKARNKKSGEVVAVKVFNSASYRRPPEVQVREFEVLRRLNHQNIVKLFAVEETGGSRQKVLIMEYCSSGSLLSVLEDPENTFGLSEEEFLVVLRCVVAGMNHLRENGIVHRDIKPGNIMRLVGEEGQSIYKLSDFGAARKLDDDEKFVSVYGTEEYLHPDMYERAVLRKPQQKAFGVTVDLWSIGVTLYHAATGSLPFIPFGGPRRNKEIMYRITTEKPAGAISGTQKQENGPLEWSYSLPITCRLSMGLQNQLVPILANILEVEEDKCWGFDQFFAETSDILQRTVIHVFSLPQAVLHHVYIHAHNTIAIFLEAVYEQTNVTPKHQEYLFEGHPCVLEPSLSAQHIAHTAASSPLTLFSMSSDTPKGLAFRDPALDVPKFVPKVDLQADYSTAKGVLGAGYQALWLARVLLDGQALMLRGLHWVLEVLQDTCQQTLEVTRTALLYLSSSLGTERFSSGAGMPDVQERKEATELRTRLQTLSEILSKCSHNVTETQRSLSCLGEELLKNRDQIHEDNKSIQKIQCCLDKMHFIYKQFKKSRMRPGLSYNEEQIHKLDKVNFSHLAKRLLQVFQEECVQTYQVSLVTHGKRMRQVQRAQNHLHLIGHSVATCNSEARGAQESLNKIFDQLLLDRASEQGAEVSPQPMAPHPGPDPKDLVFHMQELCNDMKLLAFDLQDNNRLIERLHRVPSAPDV

[4] = target: TANK-binding kinase 1 (TBK1) (murine) (UniProt Q9WUN2); remark: listed apart in the source
[5] = target: T2, inducible IκB-kinase (IKK-i) (mouse (endogenous in RAW264.7)); remark: listed apart in the source
[6] = target: Sintbad (TBKBP1) (mouse (endogenous in RAW264.7)) (UniProt A2A9T0)
[7] = target: T1, TANK (mouse (endogenous in RAW264.7)); remark: listed apart in the source

Molecule: NEMO (IKK-γ) (from UniProt O88522 1-412)
binding [2]: binds

Molecule: IKK-β (from UniProt O88351 1-757) (enzyme)
binding [2]: binds

B2: TANK (protein, UniProt P70347 1-448)
chain: T1 sequence
binding [4]: binds
binding [6]: no binding
binding [5]: binds

B3: TRAF2 (protein, UniProt P39429 1-501)
chain: MAAASVTSPGSLELLQPGFSKTLLGTRLEAKYLCSACKNILRRPFQAQCGHRYCSFCLTSILSSGPQNCAACVYEGLYEEGISILESSSAFPDNAARREVESLPAVCPNDGCTWKGTLKEYESCHEGLCPFLLTECPACKGLVRLSEKEHHTEQECPKRSLSCQHCRAPCSHVDLEVHYEVCPKFPLTCDGCGKKKIPRETFQDHVRACSKCRVLCRFHTVGCSEMVETENLQDHELQRLREHLALLLSSFLEAQASPGTLNQVGPELLQRCQILEQKIATFENIVCVLNREVERVAVTAEACSRQHRLDQDKIEALSNKVQQLERSIGLKDLAMADLEQKVSELEVSTYDGVFIWKISDFTRKRQEAVAGRTPAIFSPAFYTSRYGYKMCLRVYLNGDGTGRGTHLSLFFVVMKGPNDALLQWPFNQKVTLMLLDHNNREHVIDAFRPDVTSSSFQRPVSDMNIASGCPLFCPVSKMEAKNSYVRDDAIFIKAIVDLTGL
binding [4]: binds
binding [5]: binds

B4: IKK-α (enzyme, UniProt Q60680 1-745)
chain: MERPPGLRPGAGGPWEMRERLGTGGFGNVSLYQHRELDLKIAIKSCRLELSSKNRERWCHEIQIMKKLDHANVVKACDVPEELNFLINDVPLLAMEYCSGGDLRKLLNKPENCCGLKESQILSLLSDIGSGIRYLHENKIIHRDLKPENIVLQDVGGKTIHKIIDLGYAKDVDQGSLCTSFVGTLQYLAPELFENKPYTATVDYWSFGTMVFECIAGYRPFLHHLQPFTWHEKIKKKDPKCIFACEEMTGEVRFSSHLPQPNSLCSLIVEPMESWLQLMLNWDPQQRGGPIDLTLKQPRCFALMDHILNLKIVHILNMTSAKIISFLLPCDESLHSLQSRIERETGINTGSQELLSETGISLDPRKPASQCVLDGVRGCDSYMVYLFDKSKTVYEGPFASRSLSDCVNYIVQDSKIQLPIIQLRKVWAEAVHYVSGLKEDYSRLFQGQRAAMLSLLRYNANLTKMKNTLISASQQLKAKLEFFRKSIQLDLERYSEQMTYGISSEKMLKAWKEMEEKAIHYSEVGVIGYLEDQIMSLHTEIMELQKSPYGRRQGDLMESLEQRAIDLYKQLKHRPPDHLYSDSTEMVKIIVHTVQSQDRVLKELFGHLSKLLGCKQKIIDLLPKVEVALSNIKEADNTVMFMQGKRQKEIWHLLKIACTQSSARSLVGSSLEGTVTPPVSAWLPPTLADREHPLTCVVTPQDGETLAQMIEENLNCLGHLSTIIREANEDQSSSLMSLDWSWLAE
binding [7]: binds

Now from value to molecule:

binding [1]: binds
Molecule: TRAF3 (from UniProt Q60803 1-567)

binding [3]: binds
Molecule: AI607873 (mouse (endogenous in RAW264.7))

binding [1]: binds
binding [3]: binds
Molecule: cIAP2 (from UniProt O08863 1-600) (enzyme)

binding [1]: binds
binding [3]: binds
Molecule: cIAP1 (from UniProt Q62210 1-612) (enzyme)

binding [2]: no binding
binding [3]: binds
Molecule: Sintbad (TBKBP1) (from UniProt A2A9T0 1-611)

binding [4]: binds
binding [5]: binds
B1: TRAF1 (protein, UniProt P39428 1-409)
chain: MASSSAPDENEFQFGCPPAPCQDPSEPRVLCCTACLSENLRDDEDRICPKCRADNLHPVSPGSPLTQEKVHSDVAEAEIMCPFAGVGCSFKGSPQSMQEHEATSQSSHLYLLLAVLKEWKSSPGSNLGSAPMALERNLSELQLQAAVEATGDLEVDCYRAPCCESQEELALQHLVKEKLLAQLEEKLRVFANIVAVLNKEVEASHLALAASIHQSQLDREHILSLEQRVVELQQTLAQKDQVLGKLEHSLRLMEEASFDGTFLWKITNVTKRCHESVCGRTVSLFSPAFYTAKYGYKLCLRLYLNGDGSGKKTHLSLFIVIMRGEYDALLPWPFRNKVTFMLLDQNNREHAIDAFRPDLSSASFQRPQSETNVASGCPLFFPLSKLQSPKHAYVKDDTMFLKCIVDTSA
